Legend:
Format in all cases: cell-based
[1] = tested on: lung cancer (A549) cell line; test: MTT in vitro antiproliferation assay, A549; conditions: Homo sapiens, A549, 24 h, read-out: IC50 ± SD A549
[2] = tested on: lung normal (MRC-5) cell line; test: MTT in vitro antiproliferation assay, MRC-5; conditions: Homo sapiens, MRC5, 24 h, read-out: IC50 ± SD MRC-5
[3] = tested on: pancreatic cancer (ASPC-1) cell line; test: MTT in vitro antiproliferation assay, ASPC-1; conditions: Homo sapiens, ASPC1, 24 h, read-out: IC50 ± SD ASPC-1
[4] = tested on: breast cancer (MCF-7) cell line; test: MTT in vitro antiproliferation assay, MCF-7; conditions: Homo sapiens, MCF7, 24 h, read-out: IC50 ± SD MCF-7

IC50 [1]: 9.63 µM
IC50 [3]: 10.4 µM
IC50 [4]: 8.34 µM
SMILES: COc1cc2c(c(OC)c1OC)-c1ccc(OC)c(=O)cc1[C@@H](NC(C)=O)CC2 [CLC, colchicine]
IC50 [2]: 14 µM
